According to US8299048B2, “Hexahydrocyclopentyl[f]indazole sulfonamides and derivatives thereof as selective glucocorticoid receptor modulators” (Merck Sharp & Dohme Corp., priority 2008, dated 2012):
Some of these results come from one statement about several compounds together.

target: T1, glucocorticoid receptor (Homo sapiens, UniProt P04150); assay: Ligand binding assay (GR BIND); conditions: displacement of 3H-DEX, MDA-MB-453 cell lysate, DEX as reference
T1 construct: endogenous in cells
T1 sequence (P04150 1-777): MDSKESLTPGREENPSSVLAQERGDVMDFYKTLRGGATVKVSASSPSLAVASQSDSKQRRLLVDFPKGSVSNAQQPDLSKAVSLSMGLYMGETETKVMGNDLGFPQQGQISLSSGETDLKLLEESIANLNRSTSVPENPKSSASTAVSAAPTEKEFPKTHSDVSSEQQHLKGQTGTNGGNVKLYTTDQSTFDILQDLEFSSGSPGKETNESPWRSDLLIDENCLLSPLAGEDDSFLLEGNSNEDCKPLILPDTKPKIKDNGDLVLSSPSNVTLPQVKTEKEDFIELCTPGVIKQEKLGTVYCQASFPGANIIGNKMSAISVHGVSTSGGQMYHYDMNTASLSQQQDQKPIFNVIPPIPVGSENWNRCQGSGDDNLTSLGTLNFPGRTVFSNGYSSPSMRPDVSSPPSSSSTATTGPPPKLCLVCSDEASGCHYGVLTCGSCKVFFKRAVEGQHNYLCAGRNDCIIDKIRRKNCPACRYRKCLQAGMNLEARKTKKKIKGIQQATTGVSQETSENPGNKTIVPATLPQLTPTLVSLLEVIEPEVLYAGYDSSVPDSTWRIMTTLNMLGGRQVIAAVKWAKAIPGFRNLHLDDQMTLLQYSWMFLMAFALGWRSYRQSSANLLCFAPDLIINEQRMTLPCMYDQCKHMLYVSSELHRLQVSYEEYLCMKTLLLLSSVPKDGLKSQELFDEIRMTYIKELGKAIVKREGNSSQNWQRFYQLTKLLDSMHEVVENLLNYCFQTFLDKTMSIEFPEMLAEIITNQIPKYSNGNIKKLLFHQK
How it was run: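 Displacement of tritiated dexamethasone (6 nM trace solution) from receptor in cell supernatant was measured after overnight incubation at 4 °C in molybdate-containing TEGM, pH 7.2, 2% ethanol. Hydroxylapatite pulled down the receptor–ligand complex for filter washing and scintillation counting, with dexamethasone as reference.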

SMILES	IC50 [µM]
CCCS(=O)(=O)N(CCc1ccccc1F)C[C@H]1CCC2=Cc3c(cnn3-c3ccc(F)cc3)C[C@@]21C [Example 87, N-[2-(2-fluorophenyl)ethyl]-N-{[(4αR,5S)-1-(4-fluorophenyl)-4α-methyl-1,4,4α,5,6,7-hexahydrocyclopenta[f]indazol-5-yl]methyl}propane-1-sulfonamide]	< 1
C[C@]12Cc3cnn(-c4ccc(F)cc4)c3C=C1CC[C@@H]2CN(CCc1ccccc1F)S(=O)(=O)Cc1cccc(C(F)(F)F)c1 [Example 88, N-[2-(2-fluorophenyl)ethyl]-N-{[(4αR,5S)-1-(4-fluorophenyl)-4α-methyl-1,4,4α,5,6,7-hexahydrocyclopenta[f]indazol-5-yl]methyl}-1-[3-(trifluoromethyl)phenyl]methanesulfonamide]	< 1
C[C@]12Cc3cnn(-c4ccc(F)cc4)c3C=C1CC[C@@H]2CN(CCc1ccccc1F)S(=O)(=O)CC(F)(F)F [Example 89, 2,2,2-trifluoro-N-[2-(2-fluorophenyl)ethyl]-N-{[(4αR,5S)-1-(4-fluorophenyl)-4α-methyl-1,4,4α,5,6,7-hexahydrocyclopenta[f]indazol-5-yl]methyl}ethanesulfonamide]	< 1
COc1ccccc1CCN(C[C@H]1CCC2=Cc3c(cnn3-c3ccc(F)cc3)C[C@@]21C)S(=O)(=O)c1ccccc1F [Example 90, 2-fluoro-N-{[(4αR,5S)-1-(4-fluorophenyl)-4α-methyl-1,4,4α,5,6,7-hexahydrocyclopenta[f]indazol-5-yl]methyl}-N-[2-(2-methoxyphenyl)ethyl]benzenesulfonamide]	< 1
Cc1ccc(CCN(C[C@H]2CCC3=Cc4c(cnn4-c4ccc(F)cc4)C[C@@]32C)S(=O)(=O)c2ccccc2F)cc1 [Example 91, 2-fluoro-N-{[(4αR,5S)-1-(4-fluorophenyl)-4α-methyl-1,4,4α,5,6,7-hexahydrocyclopenta[f]indazol-5-yl]methyl}-N-[2-(4-methylphenyl)ethyl]benzenesulfonamide]	< 1
C[C@]12Cc3cnn(-c4ccc(F)cc4)c3C=C1CC[C@@H]2CN(CCc1ccccc1Cl)S(=O)(=O)c1ccccc1F [Example 92, N-[2-(2-chlorophenyl)ethyl]-2-fluoro-N-{[(4αR,5S)-1-(4-fluorophenyl)-4α-methyl-1,4,4α,5,6,7-hexahydrocyclopenta[f]indazol-5-yl]methyl}benzenesulfonamide]	< 1
CC(C1CCC2=Cc3c(cnn3-c3ccc(F)cc3)C[C@@]21C)N(CCc1ccccc1F)S(=O)(=O)CC(F)(F)F (stereo partly drawn) [Example 93, 2,2,2-trifluoro-N-[2-(2-fluorophenyl)ethyl]-N-{1-[(4αR)-1-(4-fluorophenyl)-4α-methyl-1,4,4α,5,6,7-hexahydrocyclopenta[f]indazol-5-yl]ethyl}ethanesulfonamide]	< 1
COCCN(C[C@H]1CCC2=Cc3c(cnn3-c3ccc(F)cc3)C[C@@]21C)S(=O)(=O)c1ccccc1F [Example 94, 2-fluoro-N-{[(4αR,5S)-1-(4-fluorophenyl)-4α-methyl-1,4,4α,5,6,7-hexahydrocyclopenta[f]indazol-5-yl]methyl}-N-(2-methoxyethyl)benzenesulfonamide]	< 1
CCCS(=O)(=O)N(CCOC)C[C@H]1CCC2=Cc3c(cnn3-c3ccc(F)cc3)C[C@@]21C [Example 95, N-{[(4αR,5S)-1-(4-fluorophenyl)-4α-methyl-1,4,4α,5,6,7-hexahydrocyclopenta[f]indazol-5-yl]methyl}-N-(2-methoxyethyl)propane-1-sulfonamide]	< 1
COCCN(C[C@H]1CCC2=Cc3c(cnn3-c3ccc(F)cc3)C[C@@]21C)S(C)(=O)=O [Example 96, N-{[(4αR,5S)-1-(4-fluorophenyl)-4α-methyl-1,4,4α,5,6,7-hexahydrocyclopenta[f]indazol-5-yl]methyl}-N-(2-methoxyethyl)methanesulfonamide]	< 1
COCCN(C[C@H]1CCC2=Cc3c(cnn3-c3ccc(F)cc3)C[C@@]21C)S(=O)(=O)CC(F)(F)F [Example 97, 2,2,2-trifluoro-N-{[(4αR,5S)-1-(4-fluorophenyl)-4α-methyl-1,4,4α,5,6,7-hexahydrocyclopenta[f]indazol-5-yl]methyl}-N-(2-methoxyethyl)ethanesulfonamide]	< 1
Cn1cc(S(=O)(=O)N(CCc2ccccc2F)C[C@H]2CCC3=Cc4c(cnn4-c4ccc(F)cc4)C[C@@]32C)c(C(F)(F)F)n1 [Example 98, N-[2-(2-fluorophenyl)ethyl]-N-{[(4αR,5S)-1-(4-fluorophenyl)-4α-methyl-1,4,4α,5,6,7-hexahydrocyclopenta[f]indazol-5-yl]methyl}-1-methyl-3-(trifluoromethyl)-1H-pyrazole-4-sulfonamide]	< 1
C[C@]12Cc3cnn(-c4ccc(F)cc4)c3C=C1CC[C@@H]2CN(CCc1ccccc1F)S(=O)(=O)c1ccccc1C(F)(F)F [Example 99, N-[2-(2-fluorophenyl)ethyl]-N-{[(4αR,5S)-1-(4-fluorophenyl)-4α-methyl-1,4,4α,5,6,7-hexahydrocyclopenta[f]indazol-5-yl]methyl}-2-(trifluoromethyl)benzenesulfonamide]	< 1
C[C@]12Cc3cnn(-c4ccc(F)cc4)c3C=C1CC[C@@H]2CN(CCc1ccccc1F)S(=O)(=O)c1ccccc1Cl [Example 100, 2-chloro-N-[2-(2-fluorophenyl)ethyl]-N-{[(4αR,5S)-1-(4-fluorophenyl)-4α-methyl-1,4,4α,5,6,7-hexahydrocyclopenta[f]indazol-5-yl]methyl}benzenesulfonamide]	< 1
CCCCS(=O)(=O)N(CCc1ccccc1F)C[C@H]1CCC2=Cc3c(cnn3-c3ccc(F)cc3)C[C@@]21C [Example 102, N-[2-(2-fluorophenyl)ethyl]-N-{[(4αR,5S)-1-(4-fluorophenyl)-4α-methyl-1,4,4α,5,6,7-hexahydrocyclopenta[f]indazol-5-yl]methyl}butane-1-sulfonamide]	< 1
CC(C)CS(=O)(=O)N(CCc1ccccc1F)C[C@H]1CCC2=Cc3c(cnn3-c3ccc(F)cc3)C[C@@]21C [Example 103, N-[2-(2-fluorophenyl)ethyl]-N-{[(4αR,5S)-1-(4-fluorophenyl)-4α-methyl-1,4,4α,5,6,7-hexahydrocyclopenta[f]indazol-5-yl]methyl}-2-methylpropane-1-sulfonamide]	< 1
CCCCCCCCS(=O)(=O)N(CCc1ccccc1F)C[C@H]1CCC2=Cc3c(cnn3-c3ccc(F)cc3)C[C@@]21C [Example 104, N-[2-(2-fluorophenyl)ethyl]-N-{[(4αR,5S)-1-(4-fluorophenyl)-4α-methyl-1,4,4α,5,6,7-hexahydrocyclopenta[f]indazol-5-yl]methyl}octane-1-sulfonamide]	< 1
C[C@]12Cc3cnn(-c4ccc(F)cc4)c3C=C1CC[C@@H]2CN(CCc1ccccc1F)S(=O)(=O)Cc1ccc(Cl)cc1Cl [Example 105, 1-(2,4-dichlorophenyl)-N-[2-(2-fluorophenyl)ethyl]-N-{[(4αR,5S)-1-(4-fluorophenyl)-4α-methyl-1,4,4α,5,6,7-hexahydrocyclopenta[f]indazol-5-yl]methyl}methanesulfonamide]	< 1
C[C@]12Cc3cnn(-c4ccc(F)cc4)c3C=C1CC[C@@H]2CN(CCc1ccccc1F)S(=O)(=O)Cc1cccc(Cl)c1 [Example 106, 1-(3-chlorophenyl)-N-[2-(2-fluorophenyl)ethyl]-N-{[(4αR,5S)-1-(4-fluorophenyl)-4α-methyl-1,4,4α,5,6,7-hexahydrocyclopenta[f]indazol-5-yl]methyl}methanesulfonamide]	< 1
C[C@]12Cc3cnn(-c4ccc(F)cc4)c3C=C1CC[C@@H]2CN(CCc1ccccc1F)S(=O)(=O)Cc1ccccc1Cl [Example 107, 1-(2-chlorophenyl)-N-[2-(2-fluorophenyl)ethyl]-N-{[(4αR,5S)-1-(4-fluorophenyl)-4α-methyl-1,4,4α,5,6,7-hexahydrocyclopenta[f]indazol-5-yl]methyl}methanesulfonamide]	< 1
C[C@]12Cc3cnn(-c4ccc(F)cc4)c3C=C1CC[C@@H]2CN(CCc1ccccc1F)S(=O)(=O)Cc1ccccc1C(F)(F)F [Example 108, N-[2-(2-fluorophenyl)ethyl]-N-{[(4αR,5S)-1-(4-fluorophenyl)-4α-methyl-1,4,4α,5,6,7-hexahydrocyclopenta[f]indazol-5-yl]methyl}-1-[2-(trifluoromethyl)phenyl]methanesulfonamide]	< 1
CC(C1CCC2=Cc3c(cnn3-c3ccc(F)cc3)C[C@@]21C)N(CC1CC1)S(=O)(=O)CC(F)(F)F (stereo partly drawn) [Example 109, N-(cyclopropylmethyl)-2,2,2-trifluoro-N-{1-[(4αR)-1-(4-fluorophenyl)-4α-methyl-1,4,4α,5,6,7-hexahydrocyclopenta[f]indazol-5-yl]ethyl}ethanesulfonamide]	< 1
